Here are results for two molecules from PMC11714219.

These are yes or no findings as the source states them, for the method shown. In cells and extracts the contact can be indirect. Some entries that bind do so weakly or less than the wild type.

What all share (settings): remark: other sources report otherwise
Test [1] has as its target T1, Estrogen receptor beta, full length, as in the ER ββ FL CyOFP1-EV biosensor, Q92731.
T1 chain: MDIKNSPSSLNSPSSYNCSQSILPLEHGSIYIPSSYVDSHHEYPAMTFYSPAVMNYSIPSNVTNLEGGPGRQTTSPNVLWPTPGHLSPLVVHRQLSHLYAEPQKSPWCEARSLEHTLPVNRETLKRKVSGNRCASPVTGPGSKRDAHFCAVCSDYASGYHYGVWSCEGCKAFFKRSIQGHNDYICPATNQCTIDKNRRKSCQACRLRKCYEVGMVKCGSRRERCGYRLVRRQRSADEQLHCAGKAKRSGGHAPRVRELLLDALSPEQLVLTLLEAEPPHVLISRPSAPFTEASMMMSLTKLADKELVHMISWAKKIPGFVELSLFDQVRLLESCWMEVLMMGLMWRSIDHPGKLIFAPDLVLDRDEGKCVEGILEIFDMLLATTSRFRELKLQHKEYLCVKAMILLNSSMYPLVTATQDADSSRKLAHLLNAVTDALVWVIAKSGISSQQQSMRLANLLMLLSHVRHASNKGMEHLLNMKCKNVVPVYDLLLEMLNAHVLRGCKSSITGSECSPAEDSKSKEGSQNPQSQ
In words: FRET or BRET; live-cell FRET ratio imaging (FRET/ECFP or FRET/mTurquoise2) on a fluorescence microscope at 37 °C; both partners from one transfected biosensor plasmid; cells starved in 0.5% FBS for 9-12 h; before and after 17β-estradiol (1 nM-10 µM), 4-hydroxytamoxifen (10 µM), other ER ligands (1 µM) or ionomycin (1 µM) pretreatment; cell line of the main panels not stated (LentiX-293T, HEK293A, HeLa, MCF-7 …).

Test [2] deals with T2, Estrogen receptor beta, full length, as in the ER ββ FL FRET biosensor, Q92731.
T2 chain: T1 chain
The test is described as follows: FRET or BRET; microplate reader FRET ratio of HEK293A cells transfected with the biosensor, 96-well plates, 37 °C; serial dilution of E2 from 10 µM to 1 pM, read at 1, 6 and 24 h; 72 estrogen analogs at 1 µM for the ER ββ LBD FRET biosensor.

Test [3] concerns the target T2, Estrogen receptor beta, full length, as …. In words: FRET or BRET; live-cell FRET ratio imaging (FRET/ECFP or FRET/mTurquoise2) on a fluorescence microscope at 37 °C; both partners from one transfected biosensor plasmid; cells starved in 0.5% FBS for 9-12 h; before and after 17β-estradiol (1 nM-10 µM), 4-hydroxytamoxifen (10 µM), other ER ligands (1 µM) or ionomycin (1 µM) pretreatment; cell line of the main panels not stated (LentiX-293T, HEK293A, HeLa, MCF-7 …).

B1: Estrogen receptor beta, full length, as in the ER ββ FL CyOFP1-EV biosensor, Q92731 1-530 (receptor)
chain: T1 chain
B1: in test [1], the binding result was “binds”.

B2: Estrogen receptor beta, full length, as in the ER ββ FL FRET biosensor, Q92731 1-530 (receptor)
chain: T1 chain
As to B2, the binding entry in test [2] and in test [3] was “binds” throughout.
